Source: PubChem BioAssay AID504444 (National Center for Advancing Translational Sciences (NCATS), 2011)
Out of some 360,000 compounds screened, about 7,500 (2.1%) were called active. The inconclusive results got no clear call from the source; some entries with a clear call stand among them for comparison. Calls come from the whole dose curve; as a rule, active = well fitted inhibition curve with a large enough effect; inconclusive = small, poorly fitted or top-dose-only effect, or effect the other way; inactive = flat fitted curve, though single readings scatter. Potencies of inconclusive entries are doubtful fits and often do not repeat.

Assay: Nrf2 qHTS screen for inhibitors; note: nearly all actives have a fitted effect of over 60% in size
Conditions: A549 ARE-Fluc reporter, luciferase luminescence, 18-24 h; series mostly up to 46 µM
How it was run: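 Nrf2 function is reported as luminescence of an ARE-controlled luciferase in A549 cells. Compounds were tested at several concentrations, and a CellTiter-Fluor read on the same wells flagged cytotoxicity.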
Potency is the fitted concentration of half-maximal effect.

SMILES	Potency
O=C(NCc1ccccn1)c1ccc(-c2ccccc2)cc1	inconclusive: 1.16 µM [activator, full curve, poor fit]
CC1(C)SC(=S)N(NC(=O)Nc2cccc3ccccc23)C1N(O)C(=O)Nc1ccccc1 (stereo unspecified)	inconclusive: 20.6 µM [falling, partial curve]
O=C(c1ccc2c(c1)N(Cc1ccccc1F)C(=O)c1ccccc1S2(=O)=O)N1CCCC1	inconclusive: 18.4 µM [falling, single point]
O=C(Nc1ccncc1)c1cncc(Br)c1	inactive
COc1ccc2[nH]c(C(=O)N/N=C/c3ccc(O)cc3O)cc2c1	active: 2.31 µM
O=C(COC(=O)CCC(=O)c1ccc(F)cc1)Nc1ccccc1	inconclusive: 2.31 µM [activator, full curve, poor fit]
COc1ccc(NC(=O)CSc2ncnc3c2cnn3CCc2ccccc2)cc1	inactive
Cc1cc(C)n2cc(CSc3nc4ccccc4s3)nc2n1	inconclusive: 6.51 µM [activator, single point]
O=C(C[C@H]1C[C@H](C(=O)N2CCOCC2)[C@@]2(CCC3CCCC3)c3[nH]c4ccc(Cl)cc4c3CCN2C1=O)NCc1ccco1	active: 20.6 µM
CC(C)Cn1[nH]c2c3c(ccc2c1=O)C(=O)c1ccccc1C3=O	inconclusive: 29.1 µM [falling, single point]
CC(C)C(C(=O)Nc1nccs1)c1ccc(Cl)cc1 (stereo unspecified)	inconclusive: 16.4 µM [falling, single point]
O=C(c1ccc(F)cc1)n1c(=S)nc2ccccn21	inconclusive: 0.231 µM [activator, full curve]
CN1CCN(S(=O)(=O)c2ccc(SCCOc3ccc(Cl)cc3)nc2)CC1	inconclusive: 29.1 µM [falling, single point]
O=C(C1CC(=O)N(c2ccc(Cl)cc2)C1)N1CCN(Cc2ccc3c(c2)OCO3)CC1 (stereo unspecified)	inconclusive: 18.4 µM [falling, partial curve]
COc1ccccc1CCNC(=O)CCn1nc(C)c2c(C)n(-c3ccccc3)nc2c1=O	inconclusive: 2.06 µM [falling, full curve, poor fit]
CCn1c(CNc2ccc(Cl)cc2)nnc1SCc1ccc(Cl)cc1	active: 23.1 µM
Cc1ccc(-c2csc(-c3ccncc3)n2)cc1	inconclusive: 14.6 µM [activator, partial curve]
Cc1ccc(-n2nnnc2-c2cnc(-c3cccnc3)nc2C(F)(F)F)cc1	inconclusive: 25.9 µM [falling, single point]
Cc1cc(Br)ccc1NC(=O)c1cnc(N2CCN(c3ccccn3)CC2)c2ccccc12	active: 11.6 µM
O=C(NCCc1cccc(Cl)c1)c1ccc(OC2CCN(Cc3ccccn3)CC2)cc1	inconclusive: 7.31 µM [falling, partial curve, poor fit]
O=C(COC(=O)c1ccco1)c1ccc2ccccc2c1	inconclusive: 29.1 µM [activator, single point]

Random excerpt: 3 entries already listed
SMILES	Potency
Cc1cc(C)n2cc(CSc3nc4ccccc4s3)nc2n1	inconclusive: 6.51 µM [activator, single point]
COc1ccc(NC(=O)CSc2ncnc3c2cnn3CCc2ccccc2)cc1	inactive
CC1(C)SC(=S)N(NC(=O)Nc2cccc3ccccc23)C1N(O)C(=O)Nc1ccccc1 (stereo unspecified)	inconclusive: 20.6 µM [falling, partial curve]

Next part:

SMILES	Potency
CCC(C)(C)c1ccc(Oc2ccc(N)cc2)cc1	active: 5.8 µM
Cc1ccc(O)c(-c2cc(-c3cccc(F)c3)n[nH]2)c1	inconclusive: 29.1 µM [falling, single point]
COc1ccc(N2CCN(CC(=O)Nc3ccccc3C(=O)NCc3ccccc3)CC2)cc1	inconclusive: 29.1 µM [falling, single point]
CCCCOc1ccc(CSc2nnc(C)n2N)cc1[N+](=O)[O-]	inactive
O=C(/C=C/c1ccco1)Nc1ccc(Cl)c(S(=O)(=O)N2CCOCC2)c1	inconclusive: 23.1 µM [falling, single point]
CC(C)Cn1cnc2c(Sc3c([N+](=O)[O-])ncn3C)nc(N)nc21	inactive
Cc1nn(CC(=O)NCc2ccccc2Cl)c(=O)c2nn(-c3ccccc3)c(C)c12	inconclusive: 25.9 µM [activator, single point]
Cc1ccccc1NC(=O)CSC1=Nc2ccccc2C2=NC(CCC(=O)NCc3ccccc3)C(=O)N12 (stereo unspecified)	inconclusive: 2.91 µM [falling, full curve, poor fit]
N#CC(C#N)=C1C=CC=CN1/C(=C\c1ccco1)C(=O)c1ccc(-c2ccccc2)cc1	inconclusive: 29.1 µM [falling, single point]
O=C(COc1ccc2c(c1)CCC2)N1CCc2ccccc21	inconclusive: 4.61 µM [activator, full curve]
O=C1CN(C(=O)c2ccc(Br)o2)C(c2ccccc2)c2cc(Br)ccc2N1 (stereo unspecified)	inconclusive: 20.6 µM [falling, single point]
Cc1cc(C)cc(NC(=O)CSc2nc(-c3cccc(Cl)c3)nc3c2Cc2c(CO)cnc(C)c2O3)c1	inconclusive: 29.1 µM [activator, partial curve, poor fit]
COc1ccc(N(C(=O)c2snc(C(N)=O)c2N)C(C(=O)NCc2ccccc2)c2ccc(F)cc2)c(OC)c1 (stereo unspecified)	inconclusive: 18.4 µM [falling, single point]
Cc1ccc2oc3ccccc3c(=O)c2c1	inconclusive: 18.4 µM [activator, partial curve, poor fit]
COc1cc(/C=N/NC(=O)COc2cc(C)cc(C)c2)ccc1OS(=O)(=O)c1ccc(C)cc1	inconclusive: 29.1 µM [falling, single point]
CCCNC(=O)c1c(Cl)cnn1-c1ccc(C)cc1	inconclusive: 8.2 µM [activator, partial curve]
CC(=O)c1cccc(NC(=O)CC2S/C(=N/N=C/c3ccccc3)NC2=O)c1 (stereo unspecified)	inconclusive: 0.461 µM [falling, full curve, poor fit]
Cc1ccc(C(=O)NCc2cccnc2)cc1S(=O)(=O)Nc1ccccc1	inconclusive: 14.6 µM [falling, partial curve]
CCOC(=O)NC1(C(F)(F)F)NC(=O)N(c2ccc(C)c(C)c2)C1=O (stereo unspecified)	inactive
Cc1cc(C(=O)Nn2c(-c3ccc(Br)cc3)nc3ccccc3c2=O)ccc1[N+](=O)[O-]	inconclusive: 29.1 µM [falling, single point]
